Results are given in words; binding and its absence hold for the method and conditions named. In cells and extracts the contact can be indirect. Binding calls can cover weak binding; strength is not graded here. Where a sequence is shown, tags or fusion partners need not be part of it.
Target: T1, InvC, full-length, C-terminal Strep-tag (Salmonella Typhimurium strain SL1344) (UniProt P0A1B9)
T1 sequence: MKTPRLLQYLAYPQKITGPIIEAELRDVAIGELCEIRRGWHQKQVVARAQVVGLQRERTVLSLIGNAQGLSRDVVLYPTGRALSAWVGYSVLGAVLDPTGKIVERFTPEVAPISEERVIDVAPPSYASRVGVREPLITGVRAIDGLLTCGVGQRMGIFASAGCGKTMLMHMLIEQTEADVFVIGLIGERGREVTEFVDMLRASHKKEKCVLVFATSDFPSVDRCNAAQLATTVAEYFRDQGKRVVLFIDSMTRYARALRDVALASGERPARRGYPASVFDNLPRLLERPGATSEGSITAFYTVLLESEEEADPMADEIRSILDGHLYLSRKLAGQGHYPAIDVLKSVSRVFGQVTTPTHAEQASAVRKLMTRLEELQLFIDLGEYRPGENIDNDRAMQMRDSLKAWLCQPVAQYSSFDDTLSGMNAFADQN
Assay: pull-down

Substance	binding
OrgB N-terminal half (residues 1-105), His-tagged (Salmonella Typhimurium strain SL1344) (domain or fragment)	binds weakly
OrgB C-terminal half (residues 106-226), His-tagged (Salmonella Typhimurium strain SL1344) (domain or fragment)	binds

Source: paper doi:10.1101/648071 (bioRxiv, 2019)
